From paper PMC8384837
This is one part of the list. The exact form of the protein is not confirmed.

Target: T1, PUM1 PUF domain R5-PHQ R6-SWD C1007P + R1008H + N1043S + Y1044W + Q1047D (UniProt Q14671)
T1 sequence: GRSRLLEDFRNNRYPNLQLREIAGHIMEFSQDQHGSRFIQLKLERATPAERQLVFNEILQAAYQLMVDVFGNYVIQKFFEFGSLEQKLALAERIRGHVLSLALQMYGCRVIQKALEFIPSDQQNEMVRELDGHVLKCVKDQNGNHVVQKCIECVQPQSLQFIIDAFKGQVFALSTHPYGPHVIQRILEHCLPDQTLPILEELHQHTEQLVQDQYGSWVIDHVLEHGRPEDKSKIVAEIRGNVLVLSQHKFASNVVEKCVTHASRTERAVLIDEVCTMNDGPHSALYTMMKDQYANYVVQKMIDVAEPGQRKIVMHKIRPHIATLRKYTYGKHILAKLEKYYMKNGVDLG
Conditions: yeast three-hybrid, YBZ-1, SC-Leu-His + 0.5 mM 3-AT, 4 days

| Sequence | binding signal (log2 enrichment (interaction score)) |
| --- | --- |
| GGCUAGAACUAGUGGAUCCCCCGGCGCCCGGCGGCUCGAGCCCGGGUAAGGGGGAACCGUCUGCAUGCCGCCGGGCGCCAUGCCUGCAGGUCGACUCUAGAAAACAUG | -7.79 |
| GGCUAGAACUAGUGGAUCCCCCGGCGCCCGGCGGCUCGAGCCCGGGUAAGUCUAAAAGGUCUGCAUGCCGCCGGGCGCCAUGCCUGCAGGUCGACUCUAGAAAACAUG | -8.18 |
